# Source: PubChem BioAssay AID328 (DTP/NCI, 2004)
# The list shows only some results of the screen, not a fair sample: it gathers tests that were run many times, whatever their T/C, doses with no T/C, and many T/C values between a quarter and a half above the control. Other doses and runs of a compound stand elsewhere. T/C is the treated group as % of the vehicle group. Some doses have a count of surviving animals in place of a T/C: the source holds a T/C of zero for them, seemingly a mark for toxic or unscored doses. Some doses without a T/C left all or most animals alive at the check, yet need not have been tolerated: survival well below the control is almost never listed, so the zero probably covers shortened survival too. Counts of survivors are from the toxicity check (mostly the fifth day) where no day follows; animals may have died later. Schedule codes are those of the source, read here as Q, the interval in days (D) or hours (H), X, the number of doses. Where survival is the endpoint, the PubChem record calls one and a half times the control and up active, and a quarter to a half above the control has no call in these data; cut-offs in other NCI protocols can differ. Some T/C values are followed by the survivors on the day toxicity was checked, most often the fifth; without a count, all were alive then.
# Test system: BDF1 mice, P388 leukemia ip, median survival T/C
# Assay: NCI In Vivo Anticancer Drug Screen. Data for tumor model P388 Leukemia (intraperitoneal) in B6D2F1 (BDF1) mice
# Details: T/C endpoint: median survival time, higher T/C = longer survival
# Method in brief: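 Transplantable tumour in mice; compound vs vehicle dosing; survival scored; ratio of treated to control reported.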
# [1] = dose: 50.0 mg/kg/injection, schedule: Q01DX009 (ip), vehicle: saline with Tween-80
# [2] = dose: 100.0 mg/kg/injection, schedule: Q01DX009 (ip), vehicle: saline with Tween-80
# [3] = dose: 200.0 mg/kg/injection, schedule: Q01DX009 (ip), vehicle: saline with Tween-80
# [4] = dose: 25.0 mg/kg/injection, schedule: Q04DX003 (ip), vehicle: saline with Tween-80
smiles,measurement,setting,value
COC(=O)c1ccc(OP(=O)(N(C)C)N(C)C)cc1,T/C,"dose: 6.25 mg/kg/injection, schedule: Q01DX009 (ip), vehicle: saline with Tween-80",128 % of control
same,survivor count,[1],0 of 6
same,survivor count,[2],0 of 6
same,survivor count,[3],0 of 6
CN1C(=O)Cc2[nH]ccc2C1=O,T/C,"dose: 6.25 mg/kg/injection, schedule: Q04DX003 (ip), vehicle: saline with Tween-80",127 % of control
same,survivor count,[4],2 of 6
[N-]=[N+]=NC(=O)c1ccccn1,T/C,[1],137 % of control
same,T/C,[2],135 % of control [4 of 6 alive]
C/C=C(\C)C(=O)OCC1CC[N+](C)([O-])C1 (centres undefined),survivor count,"dose: 800.0 mg/kg/injection, schedule: Q01DX009 (ip), vehicle: water",2 of 4
S=c1nc[nH]c2c1ncn2CN1CCCCC1,T/C,[2],136 % of control
C=CCCN1CCCC1,survivor count,[1],1 of 6
COc1ccc(C(=O)C(C)C=O)c(OCc2ccccc2)c1OC (centres undefined),survivor count,"dose: 400.0 mg/kg/injection, schedule: Q01DX009 (ip), vehicle: saline with Tween-80",6 of 6
Cc1cc2c(c(O)c1-c1c(C)cc(O)c3c1C(=O)C=CC3=O)C(=O)C=CC2=O,survivor count,"dose: 10.0 mg/kg/injection, schedule: Q01DX009 (ip), vehicle: saline with Tween-80",1 of 6
CCN1C(=O)CSC1=S,survivor count,"dose: 500.0 mg/kg/injection, schedule: Q01DX010 (ip), vehicle: saline",0 of 6
COC(=O)/C(C#N)=C\c1ccccc1,survivor count,"dose: 200.0 mg/kg/injection, schedule: Q04DX003 (ip), vehicle: saline with Tween-80",5 of 6
NNC(=O)OC12CC3CC(CC(C3)C1)C2,survivor count,"dose: 255.0 mg/kg/injection, schedule: Q01DX001 (ip), vehicle: Klucel (hydroxypropylcellulose) (HPC)",3 of 6
same,survivor count,"dose: 385.0 mg/kg/injection, schedule: Q04DX003 (ip), vehicle: Klucel (hydroxypropylcellulose) (HPC)",6 of 6
CC(=O)Nc1ccc(C)c([N+](=O)[O-])c1,survivor count,"dose: 400.0 mg/kg/injection, schedule: Q01DX009 (ip), vehicle: saline",4 of 6
O=C1C=C(Nc2ccc(F)cc2)C(Nc2ccc(F)cc2)=CC1=O,survivor count,"dose: 175.0 mg/kg/injection, schedule: Q01DX009 (ip), vehicle: saline with Tween-80",7 of 7
O=[N+]([O-])c1ccc(S(=O)(=O)c2ccc([N+](=O)[O-])c3no[n+]([O-])c23)cc1,survivor count,"dose: 60.0 mg/kg/injection, schedule: Q01DX009 (ip), vehicle: saline with Tween-80",4 of 7
COC1=CCC23C(=O)C=CC(=O)C2(C1)C(=O)c1ccccc1C3=O (centres undefined),T/C,[4],126 % of control
same,survivor count,"dose: 50.0 mg/kg/injection, schedule: Q04DX003 (ip), vehicle: saline with Tween-80",4 of 6
O=S1(=O)CC(Cl)(Br)C1 (tested in a mixture with another compound),survivor count,"dose: 200.0 mg/kg/injection, schedule: Q01DX009 (ip), vehicle: Klucel (hydroxypropylcellulose) (HPC)",4 of 6
same,survivor count,"dose: 400.0 mg/kg/injection, schedule: Q01DX009 (ip), vehicle: Klucel (hydroxypropylcellulose) (HPC)",0 of 6
CCCCCCCCCCCC[N+](C)(C)CC(O)C[N+](C)(C)CCCCCCCCCCCC,survivor count,"dose: 12.5 mg/kg/injection, schedule: Q01DX009 (ip), vehicle: saline",1 of 6
same,survivor count,[1],0 of 6
same,survivor count,[2],0 of 6
same,survivor count,[3],0 of 6
NC(Cc1ccccc1Cl)c1nn[nH]n1 (centres undefined),survivor count,"dose: 100.0 mg/kg/injection, schedule: Q04DX002 (ip), vehicle: saline with Tween-80",1 of 6
Cn1cc(/C=C\C(=O)O)c2nccnc21,survivor count,"dose: 50.0 mg/kg/injection, schedule: Q01DX009 (ip), vehicle: water",5 of 6
same,survivor count,"dose: 200.0 mg/kg/injection, schedule: Q01DX009 (ip), vehicle: water",5 of 6
CCCN(CCC)CC(O)c1cc2cc(C(F)(F)F)cc(C(F)(F)F)c2c2ccccc12 (centres undefined),survivor count,[3],5 of 6
CC(C)OC(=O)Nc1ccccc1Cl,survivor count,"dose: 100.0 mg/kg/injection, schedule: Q04DX003 (ip), vehicle: saline",5 of 6
same,survivor count,"dose: 200.0 mg/kg/injection, schedule: Q04DX003 (ip), vehicle: saline",6 of 6
